Assay results as given in the supplement of paper PMC7661543.
± gives the standard deviation of the averaged measurements. The effect of the compound repeats well; differences between the knockouts mostly do not.

System: HCC-38
Assay: relative cell number vs DMSO control (72 h) (% of DMSO); higher = less growth inhibition (more cells)
Method: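 QMAP-Seq: a pool of 5 breast cancer cell lines (ZR-75-1, SKBR3, HCC-38, MDA-MB-231, BT-20), each carrying 12 doxycycline-inducible Cas9 sgRNA perturbations (11 knockouts plus non-targeting sgNT), was treated with compounds for 72 h at four 10-fold doses (10 nM-10 uM or 1 nM-1 uM range). Barcodes were amplified and sequenced, and cell number was interpolated from 293T spike-in standard curves. The result is expressed as % of the median of DMSO wells. Two biological replicates.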

[1] = sgRNA knockout: sgATF3, 1000 nM
[2] = sgRNA knockout: sgATF4, 1000 nM
[3] = sgRNA knockout: sgATF6, 1000 nM
[4] = sgRNA knockout: sgATG7, 1000 nM
[5] = sgRNA knockout: sgERN1, 1000 nM
[6] = sgRNA knockout: sgHSF1, 1000 nM
[7] = sgRNA knockout: sgHSF2, 1000 nM
[8] = sgRNA knockout: sgKEAP1, 100 nM
[9] = sgRNA knockout: sgKEAP1, 1000 nM
[10] = sgRNA knockout: sgNFE2L2, 10 nM
[11] = sgRNA knockout: sgNFE2L2, 100 nM
[12] = sgRNA knockout: sgNFE2L2, 1000 nM
[13] = sgRNA knockout: sgSLC35F2, 10 nM
[14] = sgRNA knockout: sgSLC35F2, 100 nM
[15] = sgRNA knockout: sgSLC35F2, 1000 nM
[16] = sgRNA knockout: sgXBP1, 1000 nM

## CCNC(=O)c1noc(-c2cc(C(C)C)c(O)cc2O)c1-c1ccc(CN2CCOCC2)cc1 [NVPAUY922]
sgRNA knockout: sgATF3, 1 nM
  relative cell number: 114 ± 22
sgRNA knockout: sgATF3, 10 nM
  relative cell number: 71.1 ± 11
sgRNA knockout: sgATF3, 100 nM
  relative cell number: 28.6 ± 4.2
[1]
  relative cell number: 28.3 ± 3
sgRNA knockout: sgATF4, 1 nM
  relative cell number: 117 ± 2.6
sgRNA knockout: sgATF4, 10 nM
  relative cell number: 68.2 ± 7.9
sgRNA knockout: sgATF4, 100 nM
  relative cell number: 30.6 ± 3.8
[2]
  relative cell number: 28.4 ± 1.9
sgRNA knockout: sgATF6, 1 nM
  relative cell number: 120 ± 22
sgRNA knockout: sgATF6, 10 nM
  relative cell number: 73.7 ± 14
sgRNA knockout: sgATF6, 100 nM
  relative cell number: 34.7 ± 4.4
[3]
  relative cell number: 30.9 ± 3.5
sgRNA knockout: sgATG7, 1 nM
  relative cell number: 117 ± 8.6
sgRNA knockout: sgATG7, 10 nM
  relative cell number: 66.3 ± 10
sgRNA knockout: sgATG7, 100 nM
  relative cell number: 30.6 ± 5
[4]
  relative cell number: 27.8 ± 1.7
sgRNA knockout: sgERN1, 1 nM
  relative cell number: 111 ± 2.9
sgRNA knockout: sgERN1, 10 nM
  relative cell number: 66.7 ± 4.9
sgRNA knockout: sgERN1, 100 nM
  relative cell number: 34.6 ± 1.8
[5]
  relative cell number: 30.2 ± 4.6
sgRNA knockout: sgHSF1, 1 nM
  relative cell number: 90.6 ± 20
sgRNA knockout: sgHSF1, 10 nM
  relative cell number: 53.4 ± 5.4
sgRNA knockout: sgHSF1, 100 nM
  relative cell number: 18.5 ± 0.55
[6]
  relative cell number: 16.9 ± 6.6
sgRNA knockout: sgHSF2, 1 nM
  relative cell number: 122 ± 12
sgRNA knockout: sgHSF2, 10 nM
  relative cell number: 73.4 ± 12
sgRNA knockout: sgHSF2, 100 nM
  relative cell number: 32.8 ± 0.74
[7]
  relative cell number: 28.6 ± 5.1
sgRNA knockout: sgKEAP1, 1 nM
  relative cell number: 134 ± 45
sgRNA knockout: sgKEAP1, 10 nM
  relative cell number: 96.2 ± 18
[8]
  relative cell number: 42 ± 0.47
[9]
  relative cell number: 29.4 ± 6.3
sgRNA knockout: sgNFE2L2, 1 nM
  relative cell number: 111 ± 1.9
[10]
  relative cell number: 61 ± 12
[11]
  relative cell number: 29.7 ± 3.4
[12]
  relative cell number: 30.4 ± 1.9
sgRNA knockout: sgSLC35F2, 1 nM
  relative cell number: 105 ± 4.6
[13]
  relative cell number: 73.2 ± 2.7
[14]
  relative cell number: 33.5 ± 3.5
[15]
  relative cell number: 29 ± 3.9
sgRNA knockout: sgXBP1, 1 nM
  relative cell number: 121 ± 13
sgRNA knockout: sgXBP1, 10 nM
  relative cell number: 67.2 ± 12
sgRNA knockout: sgXBP1, 100 nM
  relative cell number: 32.4 ± 6.4
[16]
  relative cell number: 28.5 ± 0.66

## O=C(Nc1ccc([N+](=O)[O-])cc1Cl)c1cc(Cl)ccc1O [Niclosamide]
sgRNA knockout: sgATF3, 10 nM
  relative cell number: 101 ± 26
sgRNA knockout: sgATF3, 100 nM
  relative cell number: 99.6 ± 8.3
[1]
  relative cell number: 109 ± 2.5
sgRNA knockout: sgATF3, 10000 nM
  relative cell number: 51.2 ± 6.8
sgRNA knockout: sgATF4, 10 nM
  relative cell number: 106 ± 20
sgRNA knockout: sgATF4, 100 nM
  relative cell number: 91 ± 11
[2]
  relative cell number: 113 ± 31
sgRNA knockout: sgATF4, 10000 nM
  relative cell number: 46 ± 8.8
sgRNA knockout: sgATF6, 10 nM
  relative cell number: 97.7 ± 7.8
sgRNA knockout: sgATF6, 100 nM
  relative cell number: 105 ± 16
[3]
  relative cell number: 116 ± 30
sgRNA knockout: sgATF6, 10000 nM
  relative cell number: 65.5 ± 3.8
sgRNA knockout: sgATG7, 10 nM
  relative cell number: 97.6 ± 14
sgRNA knockout: sgATG7, 100 nM
  relative cell number: 97.9 ± 5.4
[4]
  relative cell number: 104 ± 23
sgRNA knockout: sgATG7, 10000 nM
  relative cell number: 46.6 ± 5.6
sgRNA knockout: sgERN1, 10 nM
  relative cell number: 101 ± 15
sgRNA knockout: sgERN1, 100 nM
  relative cell number: 102 ± 14
[5]
  relative cell number: 106 ± 13
sgRNA knockout: sgERN1, 10000 nM
  relative cell number: 55.5 ± 6.5
sgRNA knockout: sgHSF1, 10 nM
  relative cell number: 104 ± 3.7
sgRNA knockout: sgHSF1, 100 nM
  relative cell number: 105 ± 14
[6]
  relative cell number: 109 ± 5.7
sgRNA knockout: sgHSF1, 10000 nM
  relative cell number: 80.3 ± 1.5
sgRNA knockout: sgHSF2, 10 nM
  relative cell number: 109 ± 18
sgRNA knockout: sgHSF2, 100 nM
  relative cell number: 93 ± 9.1
[7]
  relative cell number: 116 ± 31
sgRNA knockout: sgHSF2, 10000 nM
  relative cell number: 54.9 ± 10
sgRNA knockout: sgKEAP1, 10 nM
  relative cell number: 122 ± 23
[8]
  relative cell number: 99.3 ± 3.2
[9]
  relative cell number: 115 ± 20
sgRNA knockout: sgKEAP1, 10000 nM
  relative cell number: 72.2 ± 4.5
[10]
  relative cell number: 98.8 ± 9.2
[11]
  relative cell number: 90.9 ± 9.3
[12]
  relative cell number: 110 ± 28
sgRNA knockout: sgNFE2L2, 10000 nM
  relative cell number: 46.9 ± 14
[13]
  relative cell number: 102 ± 7.3
[14]
  relative cell number: 93.8 ± 6.9
[15]
  relative cell number: 109 ± 18
sgRNA knockout: sgSLC35F2, 10000 nM
  relative cell number: 46 ± 3.3
sgRNA knockout: sgXBP1, 10 nM
  relative cell number: 101 ± 15
sgRNA knockout: sgXBP1, 100 nM
  relative cell number: 91.6 ± 13
[16]
  relative cell number: 114 ± 35
sgRNA knockout: sgXBP1, 10000 nM
  relative cell number: 45.7 ± 6.7
